Test results taken from article PMC9403361.
These are yes or no findings as the source states them, for the method shown. Binding seen in cells or lysates may run through a third protein. Some binding calls cover weakened binding; strength is not graded here. For part of these data: Where a sequence is shown, tags or fusion partners need not be part of it.

Sequences of proteins named here, by UniProt entry; tags and fusion partners are left off. A change or cut given only in a name is not applied to a line headed by its entry. Residues count along the entry.
UniProt Q15075, residues 1-209: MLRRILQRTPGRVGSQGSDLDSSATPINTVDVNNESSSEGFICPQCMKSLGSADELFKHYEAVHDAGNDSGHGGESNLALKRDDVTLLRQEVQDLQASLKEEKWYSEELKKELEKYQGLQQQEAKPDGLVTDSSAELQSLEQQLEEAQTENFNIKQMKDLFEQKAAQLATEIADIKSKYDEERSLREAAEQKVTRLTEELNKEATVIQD
UniProt P20339: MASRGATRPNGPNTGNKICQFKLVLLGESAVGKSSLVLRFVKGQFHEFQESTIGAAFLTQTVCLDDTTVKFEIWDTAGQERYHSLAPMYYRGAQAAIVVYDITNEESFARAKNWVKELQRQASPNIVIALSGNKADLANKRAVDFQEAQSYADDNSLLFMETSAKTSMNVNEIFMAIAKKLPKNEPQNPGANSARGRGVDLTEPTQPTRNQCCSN

What was measured:
Assay in all cases: pull-down; GST-effector fusion protein on glutathione-Sepharose beads incubated with clarified lysate of transfected cells for 1 h at 4 °C; lysis buffer 20 mM Hepes pH 7.4, 100 mM NaCl, 5 mM MgCl2, 0.1% NP40, 10% glycerol, 1 mM DTT; washed 3 times with PBS-T (1% Triton X-100); immunoblot with anti-Myc or anti-Rab antibody, bands quantified with LI-COR Odyssey; only the target purified
[1] = target: T1, GST fusion protein of Rabenosyn-5 RBD-N (aa1-40) (UniProt Q9H1K0)
T1 sequence: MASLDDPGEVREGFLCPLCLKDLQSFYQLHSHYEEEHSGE

[2] = target: GST fusion protein of EEA1 RBD-N (aa1-209) (UniProt Q15075)
[3] = target: T2, GST fusion protein of Rabenosyn-5 RBD-C (aa728-784) (UniProt Q9H1K0)
T2 sequence: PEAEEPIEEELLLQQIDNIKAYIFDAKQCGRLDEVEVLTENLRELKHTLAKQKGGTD

Measured: binding

Rab5:Q79L (from UniProt P20339 1-215)
binds: [1] | [2] | [3]
